Measured values reported in publication PMC7403583.
Changes are numbered by the printed parent chain. Results are given in words; binding and its absence hold for the method and conditions named. Binding seen in cells or lysates may run through a third protein. Some binding calls cover weakened binding; strength is not graded here. Blank lines part the entries; values can stand above or below the binder they belong to.

Experiments:
[1] = target: T1, human IRF4, wild type (IRF4-wt) (human) (UniProt Q15306); assay: co-IP; 293T cells co-transfected with MYC-tagged and FLAG-tagged IRF4 (wt or AA); cell extracts immunoprecipitated with anti-FLAG agarose affinity matrix; immunoblot
T1 sequence: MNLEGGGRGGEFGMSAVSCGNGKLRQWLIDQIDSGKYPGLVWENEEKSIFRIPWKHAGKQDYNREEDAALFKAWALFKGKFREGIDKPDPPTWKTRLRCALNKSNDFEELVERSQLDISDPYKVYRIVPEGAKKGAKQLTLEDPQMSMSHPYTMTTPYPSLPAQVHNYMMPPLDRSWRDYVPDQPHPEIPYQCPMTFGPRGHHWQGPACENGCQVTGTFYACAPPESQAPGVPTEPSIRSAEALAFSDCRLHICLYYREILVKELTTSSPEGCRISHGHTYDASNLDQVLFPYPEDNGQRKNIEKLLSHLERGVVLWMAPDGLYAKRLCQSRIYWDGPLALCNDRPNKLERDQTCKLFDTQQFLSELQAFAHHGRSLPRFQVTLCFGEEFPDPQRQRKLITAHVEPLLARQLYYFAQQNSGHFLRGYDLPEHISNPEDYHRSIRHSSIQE

[2] = target: human IRF4 phosphomutant (IRF4-AA), cannot undergo S446/S447 phosphorylation (human) (UniProt Q15306); assay: as above

binding [1]: binds
B1: human IRF4, wild type (IRF4-wt) (protein, UniProt Q15306-2 1-450)
chain: T1 sequence

binding [2]: no binding | binding [1]: binds
B2: human IRF4 phosphomutant (IRF4-AA), cannot undergo S446/S447 phosphorylation (protein, UniProt Q15306-2 1-450)
chain: T1 sequence with S446A, S447A
